Among the data in publication PMC7819943, “Rice protein-binding microarrays: a tool to detect cis-acting elements near promoter regions in rice” are binding signal values, retold here.

Protein sequences, listed by entry. Tags and fused reporters are not part of them.
UniProt Q0JBA9, entry or part of it: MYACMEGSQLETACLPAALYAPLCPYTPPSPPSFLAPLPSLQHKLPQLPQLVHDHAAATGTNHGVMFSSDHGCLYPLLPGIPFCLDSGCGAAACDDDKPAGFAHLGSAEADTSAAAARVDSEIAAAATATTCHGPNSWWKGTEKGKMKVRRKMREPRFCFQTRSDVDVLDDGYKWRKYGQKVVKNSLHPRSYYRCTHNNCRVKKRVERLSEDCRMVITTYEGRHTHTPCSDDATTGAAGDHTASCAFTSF

Some of the results follow.

This assay has as its target OsWRKY34 (Oryza sativa, UniProt Q0JBA9 1-250). The assay is described as follows: protein-binding microarray (RPBM); PBS, 2% BSA, 51.3 ng/ul salmon testes DNA, 50 uM zinc acetate, 200 nM TF, 25 C, 1 h; high values mean tight binding. The settings on record: protein: recombinant; tags: N-terminal polyhistidine and DsRed monomer fusion (pET32a); label: CyDye5-dUTP incorporated in the synthesized complementary strand; 3' TTTTT single-stranded linker to array surface; dsDNA, one strand shown. In outline:
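Transcription factors were each fused at the N-terminus to a polyhistidine tag plus DsRed and expressed in E. coli BL21-CodonPlus before Ni–NTA purification. Binding to a double-stranded custom Agilent array was carried out with 200 nM protein at 25 °C for 1 h in PBS, 2% BSA, salmon testes DNA and 50 µM zinc acetate. The binding signal is per-feature fluorescence intensity, in arbitrary units, on an Axon 4000B scanner.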
For “TTGCCGTACGTTTTACTCGCAAGTGCAGTGCTTCTAGAACCGGAGTCACCTAGTGCAG”, the binding signal was 8710 fluorescence intensity (a.u.).

Consider “CTATTCTCTGCGCCACATCATCGTATGAGTCTACACGGTACGGAGTCACCTAGTGCAG”, for which the binding signal is 11700 fluorescence intensity (a.u.). Turning to “TTTTTTTTCGGGGAGTAGTTTCTCTGAATTCATCGCTAGACGGAGTCACCTAGTGCAG”, the binding signal is 10100 fluorescence intensity (a.u.). The same measure for “ACGGCCGTCCGTCTGCACGAAGCATTTCCATCCACCACACCGGAGTCACCTAGTGCAG”: 10100 fluorescence intensity (a.u.); for “ATCTGGGTTCTTTTTTTTTCTTTTTTTGCCGGGTTTTTTTCGGAGTCACCTAGTGCAG”: 14800 fluorescence intensity (a.u.); for “TCTCGGTTTTCTCTTTAGCGTTCTTGCTGGGATTTGATGCCGGAGTCACCTAGTGCAG”: 8950 fluorescence intensity (a.u.). For “TTCCGGCCCCTTTGCATTTGTGCCTTGGCGGGCGCAGGGGCGGAGTCACCTAGTGCAG”, the binding signal is 8380 fluorescence intensity (a.u.). For “TCTTGACCAACGTTTAACCATTCGTTTTATTTAAAATTTTCGGAGTCACCTAGTGCAG”, the binding signal is 9450 fluorescence intensity (a.u.). In the case of “TGTTGCGGTTAGCTTGTGGCTCAGTTCTTTTACCTTCTGGCGGAGTCACCTAGTGCAG”, the binding signal is 11200 fluorescence intensity (a.u.). The same measure for “ACGCCTTCTTCTTTCGCTTCTTGTTGCCGCCGCCGCCACCCGGAGTCACCTAGTGCAG”: 8230 fluorescence intensity (a.u.); for “GTCCTTCTTCTTCTCCAGTCCACACACACAAAGGCACTCTCGGAGTCACCTAGTGCAG”: 8560 fluorescence intensity (a.u.); for “CTCTCTCTCTCTTTTCTTTTGCTAATTCATTCATATAATACGGAGTCACCTAGTGCAG”: 9770 fluorescence intensity (a.u.). On to “TTTGATGGTGCTTGATTTTTTTTTATTTCATCAGTCATCCCGGAGTCACCTAGTGCAG”, for which the binding signal is 12400 fluorescence intensity (a.u.). In the case of “CGGAGGGGTTGGGCTTGCGGGCGGCGTGTACCTTGTGCACCGGAGTCACCTAGTGCAG”, the binding signal was 9410 fluorescence intensity (a.u.).

Turning to “GTCGTTGTTTAAAAGTGTTAATGGCCTGGTGTCTAGCTAGCGGAGTCACCTAGTGCAG”, the binding signal was 9180 fluorescence intensity (a.u.). The same measure for “CGGTCAAACATGTACTAAAAAGTCAACGGTGTCAAACATTCGGAGTCACCTAGTGCAG”: 15900 fluorescence intensity (a.u.); for “CCGCTCGCCGCTCCGCCGTAAAACCCGTGCTCCACCACCGCGGAGTCACCTAGTGCAG”: 8080 fluorescence intensity (a.u.). For “ACCCACCGTTGCGTTGAGTCGTTGACCCGCAGTTCCCCTTCGGAGTCACCTAGTGCAG”, the binding signal was 12700 fluorescence intensity (a.u.).

Turning to “CCTTTGTCGAGCCATGATTTCTTCTCTCTCAAAGAGCTCACGGAGTCACCTAGTGCAG”, the binding signal is 8260 fluorescence intensity (a.u.).

For the sequence “TTCGTGTACCAAGACTTGAGTTGATCCTTTTTCGCCGCTCCGGAGTCACCTAGTGCAG”, the binding signal was 8080 fluorescence intensity (a.u.).

Take “CTTCTTCTTCTGCGGATTGTGGTGCTCGGTTTGGTCGGTGCGGAGTCACCTAGTGCAG”: the binding signal was 9740 fluorescence intensity (a.u.). “ACTTGCAGTGATCTCCTATTTTCTGTGAGGTTCATTAACACGGAGTCACCTAGTGCAG”: the binding signal is 8320 fluorescence intensity (a.u.). Take “GGTTTTATTTCTAATTAATTATTCCATTAGTCGTGATTTACGGAGTCACCTAGTGCAG”: the binding signal was 8440 fluorescence intensity (a.u.).
